Results published in PMC3502335.

How the values were obtained:
Stat5b WT (rat) [1] = biological target: T1, Stat5b WT (rat) (UniProt P52632); assay: competition EMSA; settings: Cos-7 nuclear extract (1 ug for Kd, 2 ug for competition), 60 min at 4 C, 5% native PAGE in 1x TBE pH 8.3 at 20 C, probe 0.1-15 nM, binding buffer not given (ref 31), protein in a lysate after overexpression, protein details: Flag; for IC50: vs labeled R34, GH-activated, label: 5'-Cy5.5 as probe, unlabeled as competitor
T1 sequence (looked up, limits assumed): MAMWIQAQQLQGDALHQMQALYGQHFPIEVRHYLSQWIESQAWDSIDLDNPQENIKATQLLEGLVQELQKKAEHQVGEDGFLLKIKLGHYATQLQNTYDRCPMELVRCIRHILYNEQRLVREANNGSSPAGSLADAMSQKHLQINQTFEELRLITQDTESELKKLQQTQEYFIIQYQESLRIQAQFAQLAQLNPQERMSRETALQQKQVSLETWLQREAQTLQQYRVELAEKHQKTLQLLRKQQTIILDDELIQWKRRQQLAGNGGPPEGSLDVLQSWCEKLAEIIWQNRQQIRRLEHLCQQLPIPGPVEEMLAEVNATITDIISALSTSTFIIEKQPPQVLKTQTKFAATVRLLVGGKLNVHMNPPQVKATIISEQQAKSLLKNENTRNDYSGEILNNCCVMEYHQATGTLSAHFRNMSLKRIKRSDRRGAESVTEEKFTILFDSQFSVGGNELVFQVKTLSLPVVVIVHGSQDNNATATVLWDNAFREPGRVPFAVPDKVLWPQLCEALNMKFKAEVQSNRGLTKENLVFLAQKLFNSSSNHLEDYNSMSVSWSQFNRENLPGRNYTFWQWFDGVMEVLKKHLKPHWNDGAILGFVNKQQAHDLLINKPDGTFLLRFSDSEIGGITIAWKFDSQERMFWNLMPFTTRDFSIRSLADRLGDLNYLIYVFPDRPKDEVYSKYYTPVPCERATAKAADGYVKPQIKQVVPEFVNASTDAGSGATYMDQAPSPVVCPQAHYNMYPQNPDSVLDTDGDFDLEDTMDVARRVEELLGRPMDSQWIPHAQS

Stat5b WT (rat) [2] = biological target: T1, Stat5b WT (rat); assay: EMSA; settings: GH-activated; Cos-7 nuclear extract (1 ug for Kd, 2 ug for competition), 60 min at 4 C; 5% native PAGE in 1x TBE pH 8.3 at 20 C; probe 0.1-15 nM; binding buffer not given (ref 31); protein in a lysate after overexpression; protein details: Flag; label: 5'-Cy5.5 as probe, unlabeled as competitor
[3] = vs labeled R34, IC50 only in figure

Sequence	binding result (Stat5b WT (rat) [1]; [3])	other results
AAAATATTTCCTGGAACTAAA (double strand) [R3]	binds	
AAGTTTTTCGAAGAATTGGAA (double strand) [R57]	binds	
CAAAGAATTTCTTCTTAGAATTTGTCAATTC (double strand) [R4]	binds	
CACCAATTCATGGAAATTAAAC (double strand) [R2]	binds	
CATAGTTCACAGAAAAGAGA (double strand) [R61]	binds	
CCATGATTCCTAGAAAAGATGT (double strand) [R60]	binds	
CTTCCTTCCTTGAAACTG (double strand) [R13]	binds	
GAAACTGCCTTTTCCGTTGAATCTATCCTTCC (double strand) [R13.5]		binding result (Stat5b WT (rat) [1]; vs labeled R34, competed very poorly, IC50 only in figure): binds more weakly
GAATCCTTGTGTTTCTCTGAAATCCATAGCTAG (double strand) [R54]	binds	
GGAAATTCGCAGAAGTGAG (double strand) [R59]	binds	
GGGCCTTCCTGGAAGAAAG (double strand) [R34]		IC50 (Stat5b WT (rat) [1]): 2.7 nM; Kd (Stat5b WT (rat) [2]): 6.1 nM
TCATCTTTCAGGGAAATCTAG (double strand) [R53]	binds	
TCCAGTTCTCAGAAAGGAA (double strand) [R58]		IC50 (Stat5b WT (rat) [1]): 2.2 nM; Kd (Stat5b WT (rat) [2]): 1.3 nM
TCTGCTTCTTAGAATGAAG (double strand) [R35]		IC50 (Stat5b WT (rat) [1]): 35 nM; Kd (Stat5b WT (rat) [2]): 17 nM

The exact form of at least one protein or probe is not confirmed. At least one result comes from cells or an extract, where the contact may be indirect. For some assays here: Weaker means in comparison with the reference protein, sequence or condition of that experiment. Where a protein sequence is shown, tags need not be part of it. For some assays here: At least one verdict rests on a figure or table, not on a statement of the authors.
